Laboratory results as given in article doi:10.1101/2021.09.17.460294.
These are yes or no findings as the source states them, for the method shown. In cells and extracts the contact can be indirect. Some entries that bind do so weakly or less than the wild type. Where a sequence is shown, tags or fusion partners need not be part of it.

Sequences of proteins named here, by UniProt entry; tags and fusion partners are left off.
UniProt Q13490: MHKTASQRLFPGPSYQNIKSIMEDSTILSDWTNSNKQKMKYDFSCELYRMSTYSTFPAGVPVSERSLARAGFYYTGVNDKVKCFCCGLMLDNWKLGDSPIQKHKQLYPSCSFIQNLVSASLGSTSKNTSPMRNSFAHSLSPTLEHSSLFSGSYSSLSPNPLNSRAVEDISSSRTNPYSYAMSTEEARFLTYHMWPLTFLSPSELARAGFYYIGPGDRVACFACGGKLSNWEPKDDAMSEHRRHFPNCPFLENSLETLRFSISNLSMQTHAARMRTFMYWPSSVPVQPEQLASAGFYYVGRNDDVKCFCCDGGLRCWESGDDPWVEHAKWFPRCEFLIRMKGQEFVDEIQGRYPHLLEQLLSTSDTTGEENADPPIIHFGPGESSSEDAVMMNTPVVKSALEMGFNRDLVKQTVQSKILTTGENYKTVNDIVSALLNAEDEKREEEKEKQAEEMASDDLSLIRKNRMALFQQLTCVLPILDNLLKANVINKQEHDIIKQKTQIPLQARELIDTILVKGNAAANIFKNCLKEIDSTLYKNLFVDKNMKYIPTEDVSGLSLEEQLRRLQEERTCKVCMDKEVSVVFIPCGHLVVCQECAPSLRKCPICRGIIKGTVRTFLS

Target: GST-cIAP1 (UniProt Q13490)
Assay: pull-down

B1: Venus-flag (VF)-tagged LKB1 kinase domain C-lobe truncation (CL, 132-347aa) (domain or fragment, UniProt Q15831 132-347)
chain: CVCGMQEMLDSVPEKRFPVCQAHGYFCQLIDGLEYLHSQGIVHKDIKPGNLLLTTGGTLKISDLGVAEALHPFAADDTCRTSQGSPAFQPPEIANGLDTFSGFKVDIWSAGVTLYNITTGLYPFEGDNIYKLFENIGKGSYAIPGDCGPPLSDLLKGMLEYEPAKRFSIRQIRQHSWFRKKHPPAEAPVPIPPSPDTKDRWRSMTVVPYLEDLHGA
binding: binds
